According to article PMC11952830:
No constants are given. Whether binding was seen depends on the method and setting. Some entries that bind do so weakly or less than the wild type.

Protein sequences, listed by entry. Tags and fused reporters are not part of them.
UniProt P60953: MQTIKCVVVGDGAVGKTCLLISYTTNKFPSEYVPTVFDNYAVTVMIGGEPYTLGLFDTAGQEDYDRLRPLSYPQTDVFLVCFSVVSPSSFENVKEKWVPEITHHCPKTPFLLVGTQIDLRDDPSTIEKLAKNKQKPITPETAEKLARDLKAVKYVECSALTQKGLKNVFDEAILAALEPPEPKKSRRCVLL

What was measured:
[1] = biological target: Cdc42 (UniProt P60953); assay: SEC; analytical gel filtration, Superdex 200 Increase 10/300; 7 uM Cdc42EP3, 7 uM GDP-loaded Cdc42, or both; both purified
[2] = biological target: Cdc42 (UniProt P60953); assay: SEC; analytical gel filtration, Superdex 200 Increase 10/300; 7 uM Cdc42EP3, 7 uM GMPPNP-loaded Cdc42, or both; both purified
[3] = biological target: Cdc42EP3 (wild type, full length, recombinant) (human) (UniProt Q9UKI2); assay: AUC; sedimentation velocity; Cdc42EP3 at 5, 3.75 and 1.67 uM in 1x KMEI, 42,000 RPM, 20 C, absorbance at 232 nm; both purified
[4] = biological target: T1, SEPT2/6/7 (wild type septin complex; hexamers polymerized to filaments) (UniProt Q15019); assay: co-sedimentation; 7 uM SEPT2/6/7 filaments and 1 uM Cdc42EP3 in 100 mM KCl, 1 mM MgCl2, 10 mM HEPES pH 7.0, 1 mM DTT; 1 h on ice; 21,130g; both purified
T1 sequence 1: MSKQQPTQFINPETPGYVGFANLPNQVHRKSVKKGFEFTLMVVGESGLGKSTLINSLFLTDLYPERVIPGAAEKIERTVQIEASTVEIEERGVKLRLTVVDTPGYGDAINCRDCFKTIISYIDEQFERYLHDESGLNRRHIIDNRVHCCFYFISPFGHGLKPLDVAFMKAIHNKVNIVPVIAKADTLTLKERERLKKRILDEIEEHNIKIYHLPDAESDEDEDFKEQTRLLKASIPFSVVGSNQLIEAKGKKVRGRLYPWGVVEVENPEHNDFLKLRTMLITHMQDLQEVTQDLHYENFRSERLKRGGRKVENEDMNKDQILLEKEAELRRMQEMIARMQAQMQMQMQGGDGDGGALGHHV
T1 sequence 2: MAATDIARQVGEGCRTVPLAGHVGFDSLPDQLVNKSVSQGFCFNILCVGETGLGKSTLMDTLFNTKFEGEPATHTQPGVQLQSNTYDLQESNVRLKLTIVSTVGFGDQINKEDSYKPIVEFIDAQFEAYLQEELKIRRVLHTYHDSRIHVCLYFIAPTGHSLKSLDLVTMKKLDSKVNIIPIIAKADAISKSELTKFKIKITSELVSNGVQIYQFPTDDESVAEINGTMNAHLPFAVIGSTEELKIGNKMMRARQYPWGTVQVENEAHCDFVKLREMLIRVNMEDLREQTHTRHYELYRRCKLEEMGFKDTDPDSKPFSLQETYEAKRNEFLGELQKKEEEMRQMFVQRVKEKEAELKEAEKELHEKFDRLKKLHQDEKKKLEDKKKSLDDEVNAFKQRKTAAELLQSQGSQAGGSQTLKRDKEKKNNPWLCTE
T1 sequence 3: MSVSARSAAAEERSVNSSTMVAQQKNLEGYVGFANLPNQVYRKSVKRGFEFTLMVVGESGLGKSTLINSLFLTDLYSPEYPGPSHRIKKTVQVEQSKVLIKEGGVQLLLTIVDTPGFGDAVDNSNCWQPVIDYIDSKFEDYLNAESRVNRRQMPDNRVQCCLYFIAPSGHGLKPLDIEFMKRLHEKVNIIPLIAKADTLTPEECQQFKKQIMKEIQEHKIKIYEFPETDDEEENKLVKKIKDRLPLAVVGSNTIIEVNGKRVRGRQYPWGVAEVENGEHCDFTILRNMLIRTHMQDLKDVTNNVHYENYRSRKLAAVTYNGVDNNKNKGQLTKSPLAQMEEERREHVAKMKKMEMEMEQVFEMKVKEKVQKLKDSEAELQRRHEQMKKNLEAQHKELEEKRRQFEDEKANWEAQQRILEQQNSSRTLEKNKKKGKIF

Cdc42EP3 (wild type, full length, recombinant) (from UniProt Q9UKI2 1-254)
binding [1]: no binding (condition: GDP-loaded Cdc42 (7 uM each)) | binding [2]: binds | binding [3]: no binding (tested: 5 uM) | binding [4]: binds
